The text below walks through data of article PMC12116779.

By UniProt entry, the sequences of proteins in these tests, tags left out.
UniProt Q9UBN7: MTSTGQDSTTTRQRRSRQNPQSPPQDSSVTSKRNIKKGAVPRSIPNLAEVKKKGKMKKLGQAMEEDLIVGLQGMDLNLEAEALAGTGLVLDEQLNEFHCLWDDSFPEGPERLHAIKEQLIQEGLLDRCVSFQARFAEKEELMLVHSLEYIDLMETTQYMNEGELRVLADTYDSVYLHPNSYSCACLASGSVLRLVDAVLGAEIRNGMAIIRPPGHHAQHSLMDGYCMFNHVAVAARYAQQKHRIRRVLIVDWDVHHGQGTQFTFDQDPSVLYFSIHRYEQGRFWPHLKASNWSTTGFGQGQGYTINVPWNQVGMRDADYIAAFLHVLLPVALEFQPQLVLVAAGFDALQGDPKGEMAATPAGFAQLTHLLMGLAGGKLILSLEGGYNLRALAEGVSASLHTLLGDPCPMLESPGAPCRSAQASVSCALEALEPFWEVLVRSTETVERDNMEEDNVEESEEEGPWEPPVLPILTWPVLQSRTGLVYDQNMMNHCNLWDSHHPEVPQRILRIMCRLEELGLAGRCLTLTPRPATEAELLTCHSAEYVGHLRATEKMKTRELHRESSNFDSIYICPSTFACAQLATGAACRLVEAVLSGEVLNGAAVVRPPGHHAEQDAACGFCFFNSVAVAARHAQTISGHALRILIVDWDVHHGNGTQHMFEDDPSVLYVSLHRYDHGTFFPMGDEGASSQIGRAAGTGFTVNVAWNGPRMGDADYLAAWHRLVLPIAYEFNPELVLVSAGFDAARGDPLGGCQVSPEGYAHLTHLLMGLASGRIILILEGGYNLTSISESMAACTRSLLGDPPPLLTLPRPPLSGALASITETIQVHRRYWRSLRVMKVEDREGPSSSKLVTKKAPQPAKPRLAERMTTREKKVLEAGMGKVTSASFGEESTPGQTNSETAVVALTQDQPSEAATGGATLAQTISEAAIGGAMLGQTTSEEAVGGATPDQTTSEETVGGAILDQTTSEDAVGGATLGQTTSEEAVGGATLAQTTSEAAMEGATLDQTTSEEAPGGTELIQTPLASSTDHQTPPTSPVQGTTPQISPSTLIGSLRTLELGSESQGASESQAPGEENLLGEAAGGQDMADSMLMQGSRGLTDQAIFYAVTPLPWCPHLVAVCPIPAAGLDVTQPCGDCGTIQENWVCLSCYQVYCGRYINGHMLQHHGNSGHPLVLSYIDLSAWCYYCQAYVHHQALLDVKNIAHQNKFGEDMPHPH

For experiment [1], the target named is T1, histone deacetylase 6 (HDAC6), endogenous, mouse cornea (mouse (endogenous in cornea)) (UniProt Q9Z2V5).
T1 sequence: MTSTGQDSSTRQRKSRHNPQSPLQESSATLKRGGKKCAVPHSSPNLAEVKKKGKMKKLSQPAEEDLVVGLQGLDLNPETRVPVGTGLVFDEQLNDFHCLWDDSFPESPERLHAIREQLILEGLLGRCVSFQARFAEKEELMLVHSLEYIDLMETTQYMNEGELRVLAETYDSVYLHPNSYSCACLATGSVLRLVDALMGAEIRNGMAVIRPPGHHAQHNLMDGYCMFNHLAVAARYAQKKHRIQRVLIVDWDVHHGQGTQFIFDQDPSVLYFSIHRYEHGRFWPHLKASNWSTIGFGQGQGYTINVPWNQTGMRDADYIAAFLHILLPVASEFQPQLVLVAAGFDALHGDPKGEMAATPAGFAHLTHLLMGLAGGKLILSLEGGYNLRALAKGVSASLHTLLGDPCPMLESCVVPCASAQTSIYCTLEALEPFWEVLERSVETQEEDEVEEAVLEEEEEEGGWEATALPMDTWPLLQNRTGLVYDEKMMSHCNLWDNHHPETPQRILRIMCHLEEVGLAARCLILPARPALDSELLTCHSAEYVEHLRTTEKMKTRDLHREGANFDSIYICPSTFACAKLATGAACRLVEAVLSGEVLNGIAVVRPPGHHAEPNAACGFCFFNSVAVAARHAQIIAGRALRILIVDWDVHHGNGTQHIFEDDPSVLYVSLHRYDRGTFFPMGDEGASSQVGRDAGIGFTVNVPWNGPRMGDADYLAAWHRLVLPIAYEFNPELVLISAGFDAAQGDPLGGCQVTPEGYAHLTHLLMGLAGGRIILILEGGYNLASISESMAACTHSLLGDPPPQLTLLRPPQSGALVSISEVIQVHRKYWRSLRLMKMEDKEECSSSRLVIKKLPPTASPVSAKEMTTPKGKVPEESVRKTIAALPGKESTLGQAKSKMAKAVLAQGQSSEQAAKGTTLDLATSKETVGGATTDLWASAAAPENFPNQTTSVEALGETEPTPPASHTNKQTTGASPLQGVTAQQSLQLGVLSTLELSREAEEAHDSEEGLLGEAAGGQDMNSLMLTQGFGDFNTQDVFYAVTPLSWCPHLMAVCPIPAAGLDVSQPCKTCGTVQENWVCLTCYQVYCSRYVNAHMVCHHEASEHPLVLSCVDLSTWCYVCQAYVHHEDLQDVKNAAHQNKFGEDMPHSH
Nature of the experiment: co-IP; endogenous proteins in mouse corneal lysate; primary antibody (ENKD1 antibody or control IgG for the γ-tubulin pair) on protein A/G beads; lysis buffer 50 mM Tris-HCl, 150 mM NaCl, 1 mM EDTA, 3% glycerinum, 1% NP-40; overnight at 4 °C; also corneas injected with control or HDAC6 adenoviruses.

In experiment [2] the target is GST-HDAC6 (UniProt Q9UBN7). Nature of the experiment: pull-down; 100 µg GST or GST-HDAC6 immobilised on 50 µL glutathione resin, incubated overnight at 4 °C with 100 µg His-ENKD1-CD; washed six times; immunoblotting; both purified.
Experiment [3] deals with histone deacetylase 6 (HDAC6), endogenous, HCE-2 cells (human (endogenous in HCE-2)) (UniProt Q9UBN7). Nature of the experiment: co-IP; endogenous proteins in HCE-2 lysate; primary antibody (ENKD1 antibody or control IgG for the γ-tubulin pair) on protein A/G beads; lysis buffer with 150 mM NaCl and 1% NP-40; overnight at 4 °C; also cells (not named) transfected with GFP, GFP-HDAC6 wild-type, H215A, H610A or H215/610A.

Experiment [4] has as its target HA-HDAC6 (UniProt Q9UBN7). Nature of the experiment: co-IP; HA-HDAC6 and GFP-ENKD1 co-transfected in HEK293T cells; lysis buffer with 150 mM NaCl and 1% NP-40; overnight at 4 °C.

These are yes or no findings as the source states them, for the method shown. For some of these results: In cells and extracts the contact can be indirect. Some binding calls cover weakened binding; strength is not graded here. For some of these results: Tags and fused reporters may be left off the sequences shown.

B1: enkurin domain-containing protein 1 (ENKD1), endogenous, mouse cornea (protein, UniProt Q7TSV9 1-346)
chain: MCEGPSRISGPIPPDPTLCPDYYRRPASAQGRLEGNALKLDLLTSGRDLDSSPPRGPRIRPEAREILERGQRGVGDVLLQLGCISLGSGVSPKRKNPKDHEKENLRRIKEIQRRFQDQERSREQGQPKPLKALWRSPKYDNVESRVKARMKELGPTSVTEPAHFLRAHSRCGPGLPPSRASSPQLALPGPQAKGPGLGVDFISRNALAAKRAPRRHSRSLQVLAQVQEQQRQAQERYNATQKGHVPHYLLERRDLWRKEAEARQRSQPDPSMPPGHTLMPENQRLETLNNLLQSQSQLLRELVLLPAGADSLRAQGHRAELDRKLVQIEEAIKIFSRPKVFVKMDT
Turning to B1, in experiment [1], the binding result is recorded as “binds”.

B2: His-ENKD1-CD (91-250 aa) (domain or fragment, UniProt Q9H0I2 91-250)
chain: SLKRKDPKDHEKENLRRIREIQKRFREQERSREQGQPRPLKALWRSPKYDKVESRVKAQLQEPGPASGTESAHFLRAHSRCGPGLPPPHVSSPQPTPPGPEAKEPGLGVDFIRHNARAAKRAPRRHSCSLQVLAQVLEQQRQAQEHYNATQKGHVPHYLL
In the case of B2, the binding entry in experiment [2] is reported as “binds”.

B3: enkurin domain-containing protein 1 (ENKD1), endogenous, human cells (protein, UniProt Q9H0I2 1-346)
chain: MCEGPSRISGPIPPDPTLCPDNYRRPTSAQGRLEGNALKLDLLTSDRALDTTAPRGPCIGPGAGEILERGQRGVGDVLLQLEGISLGPGASLKRKDPKDHEKENLRRIREIQKRFREQERSREQGQPRPLKALWRSPKYDKVESRVKAQLQEPGPASGTESAHFLRAHSRCGPGLPPPHVSSPQPTPPGPEAKEPGLGVDFIRHNARAAKRAPRRHSCSLQVLAQVLEQQRQAQEHYNATQKGHVPHYLLERRDLWRREAEARKQSQPDPAMPPGHTRMPENQRLETLTKLLQSQSQLLRELVLLPAGADSLRAQSHRAELDRKLVQVEEAIKIFSRPKVFVKMDD
On to B3, for which, in experiment [3], the binding result is given as “binds”.

B4: GFP-ENKD1 (protein, UniProt Q9H0I2 1-346)
chain: MCEGPSRISGPIPPDPTLCPDNYRRPTSAQGRLEGNALKLDLLTSDRALDTTAPRGPCIGPGAGEILERGQRGVGDVLLQLEGISLGPGASLKRKDPKDHEKENLRRIREIQKRFREQERSREQGQPRPLKALWRSPKYDKVESRVKAQLQEPGPASGTESAHFLRAHSRCGPGLPPPHVSSPQPTPPGPEAKEPGLGVDFIRHNARAAKRAPRRHSCSLQVLAQVLEQQRQAQEHYNATQKGHVPHYLLERRDLWRREAEARKQSQPDPAMPPGHTRMPENQRLETLTKLLQSQSQLLRELVLLPAGADSLRAQSHRAELDRKLVQVEEAIKIFSRPKVFVKMDD
Turning to B4, the binding entry in experiment [4] is given as “binds”.
